Measured values published in patent US20260240858A1, “ORAL FORMULATIONS, METHODS OF MANUFACTURE AND USES THEREOF” (Agency For Science, Technology And Research, priority 2019, published 2026).
The name of at least one read-out is uncertain.

Assay: Solubility of compound of Formula (I) in water, buffers and surfactant solutions
Assay type: physicochemical
Procedure: In water, compound of Formula (I) has a solubility of about 6 μg/mL. At pH 6, the solubility is about 5 μg/mL.

SMILES: Cn1c(=O)c2c(ncn2CC(=O)Nc2ccc(-c3ccccc3)nn2)n(C)c1=O [compound of Formula (I)]
- increase of solubility by SLS: at least 50 times
